Values of other authors, collected in patent US20240316050A1 (OXFORD UNIVERSITY INNOVATION LIMITED, priority 2020, published 2024).
At least one compound was matched to its structure with a doubt left.

Test system: patients with existing vascular disease and endothelial dysfunction
Conditions: oral BH4; cited from earlier work

C[C@H](O)[C@H](O)[C@H]1CNc2nc(N)[nH]c(=O)c2N1 [BH4, tetrahydrobiopterin]
clinical benefit in vascular disease: no benefit
